Experimental findings from article PMC7819943, “Rice protein-binding microarrays: a tool to detect cis-acting elements near promoter regions in rice” are described below.

This is one part of the list.

This experiment deals with T1, OsSMF1 (Oryza sativa, UniProt Q6ZLB0 1-436).
T1 sequence: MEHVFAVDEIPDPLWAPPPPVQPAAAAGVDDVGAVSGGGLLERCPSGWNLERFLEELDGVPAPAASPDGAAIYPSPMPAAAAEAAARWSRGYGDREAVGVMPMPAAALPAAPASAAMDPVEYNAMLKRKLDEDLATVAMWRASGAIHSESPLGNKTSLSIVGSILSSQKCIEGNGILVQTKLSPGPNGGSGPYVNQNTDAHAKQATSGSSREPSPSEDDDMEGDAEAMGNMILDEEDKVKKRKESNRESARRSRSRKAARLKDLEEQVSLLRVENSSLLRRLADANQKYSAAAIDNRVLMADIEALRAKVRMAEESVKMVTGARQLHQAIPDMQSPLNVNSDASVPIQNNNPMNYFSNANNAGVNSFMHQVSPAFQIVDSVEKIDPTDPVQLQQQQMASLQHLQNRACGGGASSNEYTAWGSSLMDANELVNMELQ
The experiment can be described thus: protein-binding microarray (RPBM); PBS, 2% BSA, 51.3 ng/ul salmon testes DNA, 50 uM zinc acetate, 200 nM TF, 25 C, 1 h; high values mean tight binding. To be noted: protein: recombinant; tags: N-terminal polyhistidine and DsRed monomer fusion (pET32a); chain copies: 2; label: CyDye5-dUTP incorporated in the synthesized complementary strand; 3' TTTTT single-stranded linker to array surface; dsDNA, one strand shown. The procedure, abridged:
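Binding signal here means per-feature fluorescence intensity in arbitrary units. The values were read on an Axon 4000B scanner after a custom Agilent array, double-stranded by primer extension with Cy5-dUTP, was incubated with 200 nM protein at 25 °C for 1 h in PBS with 2% BSA, salmon testes DNA and 50 µM zinc acetate, then washed. The proteins were transcription factors with an N-terminal polyhistidine tag and DsRed, expressed in E. coli BL21-CodonPlus and purified on Ni–NTA.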
Take “TGGCGTGATTGCAATTTGCAGTTTGTCCCTTTTGACATATCGGAGTCACCTAGTGCAG”: the binding signal was 3220 fluorescence intensity (a.u.). As for “TCAGGTGAAATCTGCTTCAGCCATATTCATTGGTAATCAGCGGAGTCACCTAGTGCAG”, the figure is 3600 fluorescence intensity (a.u.). As for “CTGGCGGCTGGCTCTGCTCGGCGTCTTTGCGCCTTGTCATCGGAGTCACCTAGTGCAG”, the figure is 3340 fluorescence intensity (a.u.). For “CTGGCGGCGAGTGACCGGGAGGTGGACCCCACGTGGCCCACGGAGTCACCTAGTGCAG”, the binding signal was 5720 fluorescence intensity (a.u.). On to “CATTGTGTAGTACTCTCTTTGCATTGCAGCTGTACAATTGCGGAGTCACCTAGTGCAG”, for which the binding signal is 3150 fluorescence intensity (a.u.). The value for “CCGGCTCACGCGCGCCGGCGGGATCCACGCGTCGTCGCCGCGGAGTCACCTAGTGCAG” was 3510 fluorescence intensity (a.u.); that for “CAGTATCTACGCCCATGCCACGCAAGCACGGACCGCCACCCGGAGTCACCTAGTGCAG” was 18200 fluorescence intensity (a.u.); that for “CACCGGCCAAACACCGCGCGGTCACTCACACGGACCGCACCGGAGTCACCTAGTGCAG” was 3340 fluorescence intensity (a.u.). As for “TTGAGCCGTTGAACAGCTCGTCTACACGTCATGGGAATAGCGGAGTCACCTAGTGCAG”, the figure is 10000 fluorescence intensity (a.u.); as for “GAAAATTGACCATAGGCGTGACGAGTCACGTCGGTACAGGCGGAGTCACCTAGTGCAG”, 5310 fluorescence intensity (a.u.); as for “TATAGTTAGGGGACCCCATATCTCGTATTGCGGTTGGAGGCGGAGTCACCTAGTGCAG”, 8080 fluorescence intensity (a.u.). As for “TCTTCGTGCTGACTCTATCGCGCTCTCTCTCTCCCATCTTCGGAGTCACCTAGTGCAG”, the figure is 6580 fluorescence intensity (a.u.); as for “ACACCATTGACACGTTTGCTTATTCAGATTGTGGTTCATGCGGAGTCACCTAGTGCAG”, 8850 fluorescence intensity (a.u.); as for “GCTGCGCCGCCATGAGCGCCCGCGTCATTCCGTCCCATCGCGGAGTCACCTAGTGCAG”, 5610 fluorescence intensity (a.u.). On to “GACTCGACTCGCATTGCGCCTGTGCTGTGCTGTGGTGGTGCGGAGTCACCTAGTGCAG”, for which the binding signal is 3400 fluorescence intensity (a.u.). The value for “CGCCCCTGATTACTCCAGTGATCTGGCACACATTCTATTTCGGAGTCACCTAGTGCAG” was 4850 fluorescence intensity (a.u.); that for “GTCGCTGGATGGGTGGCACGGGAGCGGCGGCGTCAGAGCACGGAGTCACCTAGTGCAG” was 3270 fluorescence intensity (a.u.); that for “AAATTGTACCTCACCGAGTCACCGTCCTCGCTGATGGCATCGGAGTCACCTAGTGCAG” was 4580 fluorescence intensity (a.u.). The value for “TATTCTGATTGGAACTTATGAGTCTTGAATTCTTGATTCTCGGAGTCACCTAGTGCAG” was 29700 fluorescence intensity (a.u.). As for “GGCGAGGGCGAGCACAGCAGGCAAGGCGATGGTGAGGATTCGGAGTCACCTAGTGCAG”, the figure is 3780 fluorescence intensity (a.u.); as for “AAAATGTCATGTAACTACGCCATTGGACCATAAATATTTTCGGAGTCACCTAGTGCAG”, 13600 fluorescence intensity (a.u.); as for “ATACTGCTAGTATATAACTATATATGTCTGCATGTTCAGCCGGAGTCACCTAGTGCAG”, 4560 fluorescence intensity (a.u.). Take “AATTGGACAATTCATCATAAATTTTGCATGAATGATGACACGGAGTCACCTAGTGCAG”: the binding signal is 3750 fluorescence intensity (a.u.).

On to “CGAAATTTAATGGCGCCATATATTAAAACACGGAGGGAGTCGGAGTCACCTAGTGCAG”, for which the binding signal is 3610 fluorescence intensity (a.u.). As for “TTGGGAGAGAGGGGCTAAACTTTAGCCCCTCTCTCAAAACCGGAGTCACCTAGTGCAG”, the binding signal is 23800 fluorescence intensity (a.u.). In the case of “ACGATGGCCTCCACGAATGACGCGTCCCCTGCGCGCGACGCGGAGTCACCTAGTGCAG”, the binding signal is 6890 fluorescence intensity (a.u.). The value for “CTCGTCCCTCCCTCCCTCCCCACTGTCCGCCGGACTGACGCGGAGTCACCTAGTGCAG” was 9180 fluorescence intensity (a.u.).

As for “CTGCCTCGCCTCGTCTCGCGTCACCTCGCCAGATCCGGCGCGGAGTCACCTAGTGCAG”, the binding signal was 4960 fluorescence intensity (a.u.).

Regarding “AACTAAGTCCGTACACACAAACTAGTCATGTTCAACAGGACGGAGTCACCTAGTGCAG”, the binding signal is 4140 fluorescence intensity (a.u.). The value for “CCAAATAAGTTAGACCTTGGTTCCAATCGTTTAAGATGTGCGGAGTCACCTAGTGCAG” was 3180 fluorescence intensity (a.u.); that for “GCGCTGGAGCGGAGGAGCGTGGGGAGGGCGTCGTGGCCCGCGGAGTCACCTAGTGCAG” was 5900 fluorescence intensity (a.u.). As for “ACGCCGTGATTTGAGGTTGATCTTGATGAGTGCTACTCTACGGAGTCACCTAGTGCAG”, the figure is 4110 fluorescence intensity (a.u.); as for “TGTTAAGAAAATAGATTATATCTTTGTCATCCAAATTTCCCGGAGTCACCTAGTGCAG”, 4050 fluorescence intensity (a.u.); as for “GTAGTGGGTTTCTAGCATGACGAATTGGACCGTAGTGGTACGGAGTCACCTAGTGCAG”, 3700 fluorescence intensity (a.u.). As to “TTTGCAACTTAATCCCTTGGACTAAACAGGCGAAAGGATGCGGAGTCACCTAGTGCAG”, the binding signal was 13400 fluorescence intensity (a.u.). As for “AAGATGGGGAAGGGGATAGGCGGCTGGCGTGCGATGGCGGCGGAGTCACCTAGTGCAG”, the figure is 3270 fluorescence intensity (a.u.); as for “GAAACGCCAGGTGGGCCCCACCTGCATCACTGACAGCCTGCGGAGTCACCTAGTGCAG”, 3900 fluorescence intensity (a.u.). In the case of “CGCGCAAGCTATAGCTGACTCGCTCCTAGCTACTCCACATCGGAGTCACCTAGTGCAG”, the binding signal is 3480 fluorescence intensity (a.u.). As for “CGGAGAGGGAGAAGGAGAGGAGAGGGGCTGATAGGTGGGGCGGAGTCACCTAGTGCAG”, the figure is 3520 fluorescence intensity (a.u.); as for “GAAGCGGCTCGCGCGGCCGCCACATCTTCCGATCCTCTCGCGGAGTCACCTAGTGCAG”, 4000 fluorescence intensity (a.u.). As for “TAGTTTTGTCCGACGTGACAATCTAAGTCAGTGTGGACCCCGGAGTCACCTAGTGCAG”, the binding signal is 4380 fluorescence intensity (a.u.). For “CAATCCACATCTTGATTTGTGCTGCGTGTTTCCCGTCTGTCGGAGTCACCTAGTGCAG”, the binding signal was 3210 fluorescence intensity (a.u.).
